Source: PubChem BioAssay AID1224826 (NIAID, 2016)
The deposit covers about 17,000 reagents; shown is an unselected part. In the full data, about 1,110 (6.6%) were called active. 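Active means lowered or raised reporter signal; replicate intensities are raw and not normalised per plate.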 A number with no mark means an inactive call. Further read-outs or replicates are left out here. Reagent sequences are not shown.

Screen: 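Regulators of Tlr4 signalling leading to Tnf-alpha expression in macrophages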 (primary screen)
Cells: RAW264.7 G9 macrophages from mouse bearing reporters for p65 (GFP) and the Tnf promoter (mCherry)
Reagents: siRNA pool against mouse genes, 100 nM
Time to read-out: 16 h of LPS stimulation, after 2 days of siRNA transfection
Challenge: bacterial lipopolysaccharide (Salmonella minnesota R595), 10 ng/ml
Detection: 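Nuclear mCherry signal of the Tnf promoter reporter measured by imaging after background removal, scaled to each plate median and turned into robust z-scores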
Direction: Tnf reporter robust z-score: higher = stronger Tnf promoter reporter signal after LPS
Hit rule: 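a well counts as active at a score of -1.3 or below (Tlr4 knock-down control median) or above 3 (raised signal); controls and wells holding fewer than 50 cells are excluded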
Calls: active = Tnf reporter clearly lowered or raised; inactive = no clear change in Tnf reporter

Ech1: Tnf reporter robust z-score = -0.35; fewer than 50 cells in well = enough cells in well
Tagap: fewer than 50 cells in well = fewer than 50 cells per well; well left out of calls
Ucp1: Tnf reporter robust z-score = -0.6; fewer than 50 cells in well = enough cells in well
Trat1: Tnf reporter robust z-score = 0.21; fewer than 50 cells in well = enough cells in well
Zfp354b: Tnf reporter robust z-score = 1.28; fewer than 50 cells in well = enough cells in well
Piwil1: Tnf reporter robust z-score = 1.38; fewer than 50 cells in well = enough cells in well
Or8b4: Tnf reporter robust z-score = 0.02; fewer than 50 cells in well = enough cells in well
Or1m1: Tnf reporter robust z-score = 0.12; fewer than 50 cells in well = enough cells in well
Sema6b: Tnf reporter robust z-score = 0.87; fewer than 50 cells in well = enough cells in well
Fam199x: Tnf reporter robust z-score = 0.45; fewer than 50 cells in well = enough cells in well
Slc5a4b: Tnf reporter robust z-score = -0.37; fewer than 50 cells in well = enough cells in well
Lcn5: Tnf reporter robust z-score = 2.38; fewer than 50 cells in well = enough cells in well

Records listed so far whose gene name begins with O or o:
Or8b4: Tnf reporter robust z-score = 0.02; fewer than 50 cells in well = enough cells in well
Or1m1: Tnf reporter robust z-score = 0.12; fewer than 50 cells in well = enough cells in well
